Values from PubChem BioAssay AID743121 (NCATS, 2013)

Test: 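Knock-downs that sensitise breast cancer cells to camptothecin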 (primary screen)
Cell system: MDA-MB-231 cells, a human breast cancer line
Knock-down reagent: single siRNA against human genes, 20 nM siRNA (0.8 pmol per well)
Duration: 120 h (drug added 48 h after transfection, read 72 h later)
Conditions: camptothecin 20 nM (about EC30) for 72 h; vehicle 0.1% DMSO in parallel plates
Measurement: 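Cell viability by ATP luminescence (CellTiter-Glo) as % of non-targeting siRNA wells, and the log2 ratio of viability without drug over viability with camptothecin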
Reading the numbers: log2 vehicle/camptothecin viability: higher = stronger sensitisation to camptothecin; viability with camptothecin and viability without drug: higher = more viable cells
Active means: 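Active genes have an RSA gene-level p-value below 0.001, computed from the ratios of their separate siRNAs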
The whole screen tested about 26,000 reagents; this is a part drawn at random. In the full data, 167 (0.63%) were called active. 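Calls are per gene from RSA p-values that are not deposited; an individual active-marked siRNA can sensitise only weakly.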 A number with no mark means an inactive call. Reagents against one gene are numbered here.

no.	Gene	reagent	log2 vehicle/camptothecin viability	viability with camptothecin (% of control)	viability without drug (% of control)
1	GCK	1	0.158	35.4	39.5
2	GCK	2	0.0135	53.8	54.3
3	GCK	3	-0.0655	57.6	55.1
4	GCK	4	-0.263	65.6	54.6
5	MAN2B2	1	-0.237	91.4	77.5
6	MAN2B2	2	0.0105	101	102
7	MAN2B2	3	-0.883	79	42.8
8	MAN2B2	4	-0.277	57.1	47.1
9	SRP9	1	-0.131	117	107
10	SRP9	2	-0.281	89.7	73.8
11	SRP9	3	-0.153	94.1	84.6
12	SRP9	4	-0.0304	107	105
13	PLG	1	-0.401	17.9	13.6
14	PLG	2	-0.328	57.3	45.7
15	PLG	3	-0.112	77.8	72
16	NUB1	1	0.172	44.8	50.5
17	NUB1	2	-0.242	99.4	84.1
18	NUB1	3	-0.0763	75.3	71.4
19	NUB1	4	0.026	119	121
20	RBPJL	1	-0.318	104	83.8
21	RBPJL	2	-0.936	53.8	28.1
22	RBPJL	3	0.00974	80.9	81.5
23	RBPJL	4	-0.559	21.7	14.7
24	DDIT3	1	-0.491	73.8	52.5
25	DDIT3	2	-0.183	108	95.5
26	DDIT3	3	0.0426	90.8	93.5
27	DDIT3	4	0.136	81.5	89.6
28	IFNA10	1	-0.18	101	89.1
29	IFNA10	2	-0.153	93.5	84.2
30	CPA1	1	-0.0118	98.8	98
31	CPA1	2	0.352	85.4	109
32	CPA1	3	-0.104	60.9	56.7
33	STRAP	1	-0.467	72.8	52.7
34	STRAP	2	0.326	75.3	94.3
35	STRAP	3	-0.48	104	74.4
36	STRAP	4	0.103	90.7	97.4
37	RXFP1	1	0.0988	73	78.2
38	RXFP1	2	0.254	45.7	54.5
39	RXFP1	3	-0.34	55.5	43.9
40	RXFP1	4	-0.0786	69.2	65.6
41	GNAQ	1	-0.474	96	69.1
42	GNAQ	2	-0.303	66.2	53.7
43	GNAQ	3	-0.095	114	107
44	GNAQ	4	-0.12	90.4	83.2
45	RAB29	1	-0.127	95.2	87.2
46	RAB29	2	-0.088	109	102
47	RAB29	3	-0.26	76.3	63.7
48	GDF7	1	-0.205	73.8	64
49	GDF7	2	-0.119	112	103
50	GDF7	3	0.838	23.7	42.4
51	GDF7	4	-0.0103	38.2	37.9
52	MAN2B1	1	0.238	41.4	48.8
53	MAN2B1	2	-0.0881	70.2	66
54	MAN2B1	3	-0.0725	54.9	52.2
55	MAN2B1	4	-0.18	112	98.5
56	DPF2	1	0.0287	105	108
57	DPF2	2	-0.206	42.8	37.1
58	DPF2	3	-0.246	41.2	34.8
59	DPF2	4	-0.0157	28.9	28.6
60	GLRA1	1	-0.17	40	35.5
61	GLRA1	2	-0.325	67.4	53.8
62	GLRA1	3	-0.299	77.9	63.3
63	GLRA1	4	0.0594	58.1	60.6
64	SLC6A14	1	-0.308	79.5	64.2
65	SLC6A14	2	-0.23	82.8	70.6
66	SLC6A14	3	-0.316	97.2	78.1
67	UCP2	1	1.04	18.9	38.9
68	UCP2	2	0.218	70.2	81.6
69	UCP2	3	-0.21	106	91.6
70	UCP2	4	-0.206	98.1	85
71	CAT	1	0.0704	61.5	64.6
72	CAT	2	0.107	34.2	36.9
73	CAT	3	0.104	94.7	102
74	CAT	4	-0.205	75.8	65.8
75	OR5P3	1	-0.624	95.2	61.8
76	OR5P3	2	-0.163	87.9	78.5
77	OR5P3	3	-0.292	118	96.7
78	OR5P3	4	-0.46	84.3	61.3
79	FBXO24	1	-0.384	42.9	32.8
80	FBXO24	2	-0.362	63.2	49.2
81	FBXO24	3	-0.000819	80.3	80.2
82	FBXO24	4	0.0103	60.6	61
83	EPS15	1	0.234	53.3	62.7
84	EPS15	2	-0.382	122	93.4
85	EPS15	3	-0.0657	89.3	85.3
86	EPS15	4	-0.225	109	93.4
87	ATP6V1B2	1	-0.738	35.7	21.4
88	ATP6V1B2	2	-0.179	55.8	49.3
89	ATP6V1B2	3	-0.496	58.8	41.7
90	ATP6V1B2	4	-0.543	66.7	45.8

7 entries from above, showing only “viability with camptothecin (% of control)”:
MAN2B1 #4	112
DPF2 #1	105
DPF2 #2	42.8
DPF2 #3	41.2
DPF2 #4	28.9
GLRA1 #1	40
GLRA1 #2	67.4
